The whole screen tested about 1,400 compounds, of which fewer than 10 were called active. Inconclusive results (about 8%) are left out. The call rests on the fitted dose curve; in most records, active means well fitted curve in the direction sought with a large enough effect; inconclusive means small, poorly fitted or top-dose-only effect, or another doubt; inactive means no such curve, though single readings can be large or run the other way. The list shows a part of the results.
Target: Transient receptor potential cation channel subfamily V member 1 (Homo sapiens) (UniProt Q8NER1)
Assay: qHTS Assay for Compounds that Act as Potentiators of the Vanilloid Receptor 1: Hit Validation; further: % of control where 0% means no effect
Settings: TRPV1-expressing cells, Fluo-8 calcium influx, capsaicin EC20; series mostly up to 42.1 µM; activity change, positive = potentiation: at the top concentration
Text: The transient receptor potential ion channel, family V, number 1, (TRPV1) is one of the most important molecular transducers of painful stimuli and a potential target for analgesic drug development. Although recent clinical trials with orthosteric antagonists have not produced a successful drug because of a hyperthermia side effect and their tendency to block thermal noxious pain, this ion channel is undeniably well placed in the pain pathway, and the idea of blocking pain signals before they enter the CNS is an excellent concept and of proven efficacy when TRPV1 agonists are used. We propose a new approach involving allosteric modulation to impose an activity-dependent constraint within the context of inflammation and tissue damage that would alter the responsiveness of the channel in a way that an orthosteric vanilloid antagonist cannot achieve. We believe that the allosteric modulator approach has not been explored for this target. The main goal of this proposal is to identify additional, new, potent allosteric modulators of TRPV1 that can be used to investigate TRPV1 function. Our recent report provides evidence of proof of concept, but the compounds are just at the edge of utility in terms of potency. […] The question of whether they can be used as analgesic agents is complex, but if suitable compounds are identified then testing for analgesic properties will be conducted. Compounds identified as agonists were re-tested in the primary screen for hit validation. NIH Chemical Genomics Center [NCGC] NIH Molecular Libraries Probe Centers Network [MLPCN] MLPCN Grant: MH089480 Assay Submitter (PI): Michael Iadarola, National Institute of Dental and Cranofacial Research
Upon TRPV1 activation in TRPV1 cells, the channel opens and extracellular cations flow through the channel into the cytosol. A calcium binding dye (Fluo-8) becomes fluorescent when bound to calcium. This dye is pre-loaded into cells and is used as a marker for calcium influx. The amount of accumulated calcium is precisely quantified using the FDSS kinetic reader and the calcium dye. For the HTS assay, freshly prepared cells are plated at a density of 2000/well in 3 ul medium in 1536-well plates and cultured overnight at 35.5C. Cells will be loaded with 1 ul of the homogeneous calcium dye (ABD Bioquest) at room temperature for 40 to 90 minutes. Plates will be loaded into the FDSS kinetic reader and a 1 sec / cycle for 10 second baseline signal will be measured. Compound library will then be added with a pintool at 23 nl and measured kinetically for 3 minutes. This portion of the read is considered the agonist portion of the screen. Following the 3 minutes of incubation, an on board pipettor will deliver 1 ul of capsaicin for a final concentration equal to the EC20. Signal will be measured kinetically for an additional 2 minutes. This portion of the read is considered the allosteric enhancer portion of the screen. The FDSS reader has a standard filter set capable of measuring calcium bound Fluo-8 (ex=480 and em=520 nm).

Sequences of proteins named here, by UniProt entry; tags and fusion partners are left off.
UniProt Q8NER1, whole entry, looked up: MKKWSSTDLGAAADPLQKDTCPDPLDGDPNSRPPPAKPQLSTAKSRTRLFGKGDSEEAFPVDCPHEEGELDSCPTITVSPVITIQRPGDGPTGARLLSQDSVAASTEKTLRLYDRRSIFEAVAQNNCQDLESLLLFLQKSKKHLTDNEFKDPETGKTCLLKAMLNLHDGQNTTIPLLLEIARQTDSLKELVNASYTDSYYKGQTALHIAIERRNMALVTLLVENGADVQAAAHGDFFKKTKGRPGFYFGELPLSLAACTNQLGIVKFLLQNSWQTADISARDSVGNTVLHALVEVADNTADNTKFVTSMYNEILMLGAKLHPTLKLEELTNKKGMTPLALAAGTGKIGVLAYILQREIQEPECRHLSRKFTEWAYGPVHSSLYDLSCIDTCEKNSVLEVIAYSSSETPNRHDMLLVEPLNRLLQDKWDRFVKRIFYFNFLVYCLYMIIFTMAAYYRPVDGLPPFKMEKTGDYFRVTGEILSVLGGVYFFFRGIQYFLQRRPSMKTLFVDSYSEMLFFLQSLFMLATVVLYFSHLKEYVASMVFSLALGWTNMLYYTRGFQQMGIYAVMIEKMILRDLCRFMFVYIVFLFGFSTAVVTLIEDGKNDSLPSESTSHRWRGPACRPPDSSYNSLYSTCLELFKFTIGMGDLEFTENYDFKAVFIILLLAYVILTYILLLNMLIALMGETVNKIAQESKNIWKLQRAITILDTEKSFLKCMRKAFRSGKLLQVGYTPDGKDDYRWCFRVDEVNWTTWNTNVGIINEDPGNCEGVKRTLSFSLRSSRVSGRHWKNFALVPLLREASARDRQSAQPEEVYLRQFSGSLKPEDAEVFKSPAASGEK

Activity change, positive = potentiation, inactive:
COc1ccccc1C(=O)NC(=S)N1CCCc2ccccc21 -8.09%
O=[N+]([O-])c1cc([N+](=O)[O-])c(Oc2cc(F)cc(F)c2)cc1NN1CCCCC1 -37.5%
COc1ccc(C(=O)NCCN2CCOCC2)cc1[N+](=O)[O-] 2.34%
N#CC1=C(SCC(=O)Nc2cccc3cccnc23)NC(=O)C(C#N)C12CCCCC2 (stereo unspecified) 21.3%
Cc1cccc(NC(=S)NNC(=S)NCc2ccccc2)c1 1.76%
COc1ccc(OC)c(NC(=O)CCN2C(=O)c3ccccc3C2=O)c1 4.29%
Fc1ccc(CNC(=S)Nc2ccc(Cl)cc2Cl)cc1 -36.8%
Cc1ccc(S(=O)(=O)Nc2nnc(C3CCCCC3)s2)cc1 -5.02%
COC(=O)[C@@]12CCCCN1[C@H](c1ccc(-c3cc(C(C)=O)cs3)c(OC)c1)[C@H]1C(=O)N(C)C(=O)[C@H]12 -3.68%
CCOc1ccc(-c2cccc(NS(=O)(=O)c3cc([N+](=O)[O-])ccc3Cl)c2)nn1 2.27%
Cc1ccc(NC(=O)CCn2nc(C)cc2C)cc1 -6.67%
CC(=O)c1ccc(N2CCN(CC3CCCCC3)CC2)cc1 -9.43%
O=C(NCc1cccnc1)c1ccc(-c2ccc(Cl)cc2)o1 -37.5%
CCN(CC(=O)Nc1ccc(N2CCOCC2)cc1)Cc1nc2ccccc2c(=O)[nH]1 -4.07%
CCN1CCN(CC(=O)Nc2nc3ccccc3s2)CC1 -6.63%
CC(C)c1ccc(NC(=O)N2CCC(c3nc4ccccc4o3)CC2)cc1 -36.5%
CCN(CC)S(=O)(=O)c1cccc(C(=O)OCC(=O)c2ccc3c(c2)OCCO3)c1 2.85%
Fc1ccc(CNC(=S)NCc2ccccc2)cc1 -38.5%
Cc1ccccc1OCC(=O)OCC(=O)Nc1cc(S(C)(=O)=O)ccc1Cl -1.87%
CC(=O)c1ccc(N2CCN(C(=O)Nc3ccc(C(C)C)cc3)CC2)cc1 -1.99%
NC(=O)c1ccccc1N/C=C/C(=O)c1cccs1 11%
COC(=O)c1cc(OC)c(OC)cc1N1C(=O)CC(C)(C)CC1=O -2.61%
CCN(c1ccc(NC(=O)c2ccc(Cl)nc2)cc1)C(C)C -39.2%
CCN1CCN(Cc2ccc(NC(=O)c3ccc(C)c(NC(=O)c4nccnc4N)c3)cc2C(F)(F)F)CC1 5.5%
Cc1ccc(C(=O)CCC(=O)Nc2ccccc2F)cc1 -5.15%
C/C(=N\Nc1ccc2nncn2n1)c1ccc(Cl)s1 -32.9%
CCN(CC)S(=O)(=O)c1ccc(/C=C/C(=O)Nc2cccc(F)c2)cc1 -36.7%
O=C(Cc1cccs1)Nc1cccc(-c2ccc3nncn3n2)c1 6.87%
CCOc1ccc(-c2nnc(NC(=O)C3CCCC3)o2)cc1 -3.8%
COc1cccc(N2CCN(c3nc(C)cc(=O)[nH]3)CC2)c1 -39%
O=C(Cc1cn2ccsc2n1)Nc1nc2c(s1)CCCC2 7.96%
CCC1CCCCN1Cc1nc2ccccc2c(=O)n1CC(C)=O (stereo unspecified) -3.17%
CCOC(=O)[C@H]1[C@H]2COc3ccc(C)cc3[C@@H]2N2C(=O)c3ccc(F)cc3NC(=O)[C@@]12C -39.2%
NC(=O)CSc1nnnn1CC(CC(=O)O)c1ccccc1 (stereo unspecified) -2.45%
O=C(N/C(=C\c1ccco1)C(=O)N1CCCC(CO)C1)c1ccccc1 (stereo unspecified) 4.88%
COc1ccccc1NC(=O)c1nn(-c2ccccc2)ccc1=O -12.1%
O=C(NCc1ccc(F)cc1)N[C@@H](Cc1ccccc1)C(=O)O -5.73%
COC(C[C@@H](O)CC(=O)[C@@H](C)OCc1ccccc1)OC -1.16%
CCOc1cc(C(=S)N2CCCC2)ccc1O -21.4%
CC(C)c1ccc(NC(=S)NC2CC3C=CC2C3)cc1 (stereo unspecified) -39.8%
COc1cc(NS(=O)(=O)c2ccc(NC(=O)c3ccc(F)cc3)cc2)ncn1 24.6%
COC(=O)c1c(NC(=O)C(=O)N2CCOCC2)sc2c1CCCC2 -38.4%
CCOc1cc(/C=C2\SC(=S)N(C(C(=O)O)c3ccccc3)C2=O)ccc1O (stereo unspecified) -16.4%
O=C1CNC(=S)N1C(CO)c1ccccc1 (stereo unspecified) -12.1%
O=C(NC1CCS(=O)(=O)C1)c1cccc(S(=O)(=O)N2CCOCC2)c1 (stereo unspecified) 4.23%
CCCOc1ccc(C2Nc3cccc4cccc(c34)N2)cc1 -5.78%
CCCc1nc2nc(C)c(NS(=O)(=O)c3ccc([N+](=O)[O-])cc3)c(=O)n2[nH]1 3.7%
CC(=O)NS(=O)(=O)c1ccc(NC(=O)CC(C)c2ccccc2)cc1 (stereo unspecified) -3.07%
CCc1ccc(NC(=O)c2onc(C)c2Cl)cc1 -38.9%
O=C(NC(=S)Nc1ccccc1Br)c1ccco1 13.2%
Fc1ccc(CNc2ccccn2)cc1 -3.48%
CC(C)(C)c1ccc(OCCNC(=O)Cc2ccc(F)cc2)cc1 -39.5%
C=C(C(=O)Nc1ccccc1)c1ccc(C)cc1 -6.44%
Cc1cc(=O)oc2cc(OCC(=O)N3CCN(c4ccc(F)cc4)CC3)c(Cl)cc12 -5.74%
Cc1ncoc1C(=O)NC1CC(C)(C)Cc2c1cnn2-c1ccc(F)cc1 (stereo unspecified) -28.8%
O=C(NCCC1=CCCCC1)c1ccc([N+](=O)[O-])cc1 -37.8%
O=C(Nc1cccc(F)c1)[C@@H]1CCCN1 -3.75%
CCOC(=O)c1c(C)nn(-c2ncccc2NC(=O)CCC(=O)O)c1C -5.17%
Cc1nc(Nc2cccc(Cl)c2)c2oc3ccccc3c2n1 -38.3%
CON(C)c1nc(Oc2ccc(=O)[nH]n2)nc(N(C)C)n1 -4.27%
O=C(O)/C=C\C(=O)Nc1ccccc1C#Cc1ccccc1 -9.58%
CCc1nnc(NC(=O)Cc2ccc(Br)cc2)s1 -1.27%
Cc1ccc(C)c(SCC(=O)Nc2cccc(S(=O)(=O)NC3=NCCCCC3)c2)c1 7.23%
COc1ccccc1C(=O)NCC(=O)OC(C)C(=O)N(C)C1CCCCC1 (stereo unspecified) -21.2%
Cc1cc(C(=O)NCCC2=CCCCC2)ccc1[N+](=O)[O-] -35.5%
Cc1ccc(Nc2ncnc3c2oc2ccccc23)cc1 -37.9%
CCOC(=O)[C@H]1[C@H]2COc3ccc(OC)cc3[C@@H]2N2C(=O)c3ccc(Cl)cc3NC(=O)[C@@]12C -39%
O=S(=O)(N/N=C\c1c(F)cccc1Cl)c1ccc(Cl)cc1 -6.12%
CC(=O)Nc1ccc(Nc2ncnc3c2cnn3-c2ccc(C)cc2C)cc1 -39.7%
Cc1ccccc1NC(=O)CN1CCN(C)CC1 -3.8%
Cc1ccc(Cl)cc1N1CCN(S(=O)(=O)c2ccc3[nH]c(=O)c(=O)[nH]c3c2)CC1 1.54%

Random excerpt: three compounds from above, in no set order.
Activity change, positive = potentiation, inactive:
CCCOc1ccc(C2Nc3cccc4cccc(c34)N2)cc1 -5.78%
CCN(CC)S(=O)(=O)c1cccc(C(=O)OCC(=O)c2ccc3c(c2)OCCO3)c1 2.85%
O=C(Cc1cn2ccsc2n1)Nc1nc2c(s1)CCCC2 7.96%

Source: PubChem BioAssay AID623959 (National Center for Advancing Translational Sciences (NCATS), 2012)
